# PubChem BioAssay AID504834 (National Center for Advancing Translational Sciences (NCATS), 2011)
# About 22,000 (6.9%) of roughly 320,000 compounds were called active. Inconclusive means that the source gave no clear call. Such entries were picked first, then a sample of the others. The call rests on the fitted dose curve; in most records, active means well fitted inhibition curve with a large enough effect; inconclusive means small, poorly fitted or top-dose-only effect, or another doubt; inactive means no such curve, though single readings can be large or run the other way. A potency beside an inconclusive call is a rough fit, not a confirmed value.
# Assay: Primary qHTS for delayed death inhibitors of the malarial parasite plastid, 96 hour incubation
# Conditions: P. falciparum luciferase reporter growth; series mostly up to 28.7 µM
# Method in brief: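 P. falciparum expressing integrated firefly luciferase grown in erythrocytes (2% hematocrit, 0.05% parasitemia final) with compounds for 96 hours at 37 C, 5% CO2. Growth inhibition read as loss of luminescence after adding luciferase detection reagent.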
# On the % scale 0 is the no-effect control and ±100 the full control effect; potency means the concentration at half of the fitted maximal effect.
Structure (SMILES),Potency,"activity change, negative = inhibition"
CC(C)Oc1ccc(CN=C(N)N=C(N)N)cc1Cl,"inconclusive: 9.28 µM [inhibitor, partial curve, poor fit]",
O=C(Nc1nnc(CSCc2ccc(Cl)cc2)s1)c1cccc([N+](=O)[O-])c1,"inconclusive: 11.7 µM [inhibitor, single point]",
Cc1ccc(-n2c(C)cc(/C=N\NC(=O)CC(=O)NC(C)C)c2C)cc1,"inconclusive: 13.1 µM [inhibitor, partial curve, poor fit]",
Cc1ccc(C(=O)NC(C)c2ccc(-n3ccnc3)cc2)cc1 (stereo not drawn),"inconclusive: 4.65 µM [inhibitor, partial curve, poor fit]",
COc1ccc(-c2nc3c(c(SCC(=O)N4CCOCC4)n2)COC(C)(C)C3)cc1,,inactive: 15.9% [at 5.75 µM]
Cc1cc(C)nc(Nc2nc(-c3ccccc3)cs2)n1,inactive,
Cc1c(C)c2cc3c4c(oc3c(C)c2oc1=O)CCCC4,"inconclusive: 4.65 µM [inhibitor, partial curve, poor fit]",
Cc1nc(C)c(-c2csc(Nc3ccc(O)c(C(=O)O)c3)n2)s1,"inconclusive: 18.5 µM [inhibitor, single point]",
COc1ccc(N=NC2C(=O)N(c3ccccc3)N=C2C)cc1 (stereo not drawn),active: 2.62 µM,
CCN(CC)S(=O)(=O)c1cccc(C(=O)/C=C2/N(C)c3ccccc3C2(C)C)c1,"inconclusive: 13.1 µM [inhibitor, partial curve, poor fit]",
COc1cccc(N2CCN(S(=O)(=O)c3ccc4c(c3)CC(C)N4C(=O)C3CC3)CC2)c1 (stereo not drawn),"inconclusive: 11.7 µM [inhibitor, partial curve, poor fit]",
O=C(CC1C(=O)NCCN1Cc1ccc(Cl)c(F)c1)NC1CCCCC1 (stereo not drawn),"inconclusive: 11.7 µM [inhibitor, partial curve]",
O=C(NCc1n[nH]c(=S)n1-c1ccc([N+](=O)[O-])cc1)c1ccc(S(=O)(=O)N2CCOCC2)cc1,active: 6.57 µM,
O=C1CC(c2cccc(Cl)c2)CC(O)=C1C=Nc1ccccc1 (stereo not drawn),"inconclusive: 7.38 µM [inhibitor, partial curve, poor fit]",
O=C(C1CCC(Cn2c(=S)[nH]c3ccccc3c2=O)CC1)N1CCOCC1 (stereo not drawn),inactive,
CSc1nncn1/N=C/c1ccc([N+](=O)[O-])cc1,inactive,
O=C(COc1ccccc1)NNC(=O)c1ccc(Cl)cc1,"inconclusive: 18.5 µM [inhibitor, single point]",
C=CCC1(CC=C)CCCN1C(=O)C1CCC(=O)N(CCc2ccc(OC)cc2)C1 (stereo not drawn),"inconclusive: 7.38 µM [inhibitor, partial curve]",
CCN(CC(=O)Nc1ccc2c(c1)OCCO2)Cc1cc(=O)n2ccsc2n1,"inconclusive: 18.5 µM [inhibitor, single point]",
O=C(CCn1nc(-c2ccccc2)ccc1=O)N1CCCC1,inactive,
COc1cc2c(cc1OC)C1O[C@](CCCCN3C(=O)c4ccccc4C3=O)(C2)OC2=C1C(=O)CCC2,active: 1.51 µM,
O/N=C(/CN(O)/C=C1/C=CC=N1)c1cccs1,active: 14.7 µM,

# Of the compounds above, 2 contain an NH in an aromatic ring.
Structure (SMILES),Potency,"activity change, negative = inhibition"
O=C(NCc1n[nH]c(=S)n1-c1ccc([N+](=O)[O-])cc1)c1ccc(S(=O)(=O)N2CCOCC2)cc1,active: 6.57 µM,
O=C(C1CCC(Cn2c(=S)[nH]c3ccccc3c2=O)CC1)N1CCOCC1 (stereo not drawn),inactive,

# (cont.)

Structure (SMILES),Potency,"activity change, negative = inhibition"
Cc1cc(C(=O)CSc2nnc(-c3ccc(Cl)cc3)n2C)c(C)n1CC1CCCO1 (stereo not drawn),inactive,
COc1cccc(/C=C(\C#N)c2nc3ccccc3[nH]2)c1OCC(=O)O,"inconclusive: 3.29 µM [inhibitor, full curve, poor fit]",
CCOC(=O)C1(CCCc2ccccc2)CCN(C(=O)CN2C(=O)CSC2=O)CC1,"inconclusive: 11.7 µM [inhibitor, single point]",
CC1(C)COC(c2ccc(F)c([N+](=O)[O-])c2)=N1,"inconclusive: 11.7 µM [inhibitor, single point]",
CC(C)OC(=O)/C(C#N)=C/c1cn(Cc2ccccc2)c2ccccc12,"inconclusive: 18.5 µM [inhibitor, single point]",
COc1ccc(/C=C(\C#N)C(=O)Nc2ccccn2)cc1,inactive,
CN(C)CCOC(c1ccc(Cl)cc1)c1ccccn1 (stereo not drawn),"inconclusive: 4.26 µM [inhibitor, full curve]",
CCn1c(=O)c2c(nc3n2CCN3c2ccccc2)n(C)c1=O,"inconclusive: 8.28 µM [inhibitor, partial curve, poor fit]",
O=C(CSc1nc(=O)n2ccccc2n1)N1CCCc2ccccc21,"inconclusive: 18.5 µM [inhibitor, single point]",
CC(C)CCn1c(=O)c2ccccc2n2c(CCC(=O)NC3CCN(Cc4ccccc4)CC3)nnc12,"inconclusive: 14.7 µM [inhibitor, single point]",
CCCCOc1ccc(C(=O)NCC(=O)NC(C)CCc2ccccc2)cc1 (stereo not drawn),"inconclusive: 18.5 µM [inhibitor, single point]",
Cc1cc(C)cc(NS(=O)(=O)c2ccc(-c3cnc(C4CC4)o3)cc2)c1,inactive,
CCS(=O)(=O)N1Cc2ccccc2CC1C(=O)Nc1ccc(F)c(F)c1 (stereo not drawn),inactive,
Cc1ccc(C)c(S(=O)(=O)N2CCN(C(=O)c3ccc(N4CCCC4)c([N+](=O)[O-])c3)CC2)c1,"inconclusive: 10.4 µM [inhibitor, single point]",
Cc1cccc(Nc2nc(OCC#N)nc(N(C)C)n2)c1,active: 11.7 µM,
CCN(CC)c1nc(N)c([N+](=O)[O-])c(NCCO)n1,inactive,
NNC(=O)c1csc(-c2cccc(C(F)(F)F)c2)n1,"inconclusive: 7.38 µM [inhibitor, partial curve, poor fit]",
CCOc1ccccc1-n1c(SCC(=O)N2CCCc3ccccc32)nnc1-c1cccnc1,"inconclusive: 10.4 µM [inhibitor, partial curve, poor fit]",
COC(=O)CCC(=O)OC1(C)C(=O)C=C2C=C(C3CC3)N(C3CCCC3)C=C2C1=O (stereo not drawn),active: 7.38 µM,
C=CCOc1c(Br)cc(CNc2ccc(NC(=O)C(C)C)c(OC)c2)cc1OCC,"inconclusive: 18.5 µM [inhibitor, single point]",
COc1ccc(NC(=O)CN(C)C(=O)CCNC(=O)c2ccccc2OC)cc1,inactive,
